In the supplement of paper PMC10849652:
Some of the results follow.

Protein sequences, listed by entry. Tags and fused reporters are not part of them. Lines headed by an entry give the natural chain unless they say otherwise; changes in a name come on top.
UniProt P02724: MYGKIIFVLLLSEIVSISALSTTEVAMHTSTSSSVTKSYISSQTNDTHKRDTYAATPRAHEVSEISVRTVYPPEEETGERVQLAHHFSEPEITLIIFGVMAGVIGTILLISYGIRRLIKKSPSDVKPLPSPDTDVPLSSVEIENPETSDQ
UniProt Q9BX10: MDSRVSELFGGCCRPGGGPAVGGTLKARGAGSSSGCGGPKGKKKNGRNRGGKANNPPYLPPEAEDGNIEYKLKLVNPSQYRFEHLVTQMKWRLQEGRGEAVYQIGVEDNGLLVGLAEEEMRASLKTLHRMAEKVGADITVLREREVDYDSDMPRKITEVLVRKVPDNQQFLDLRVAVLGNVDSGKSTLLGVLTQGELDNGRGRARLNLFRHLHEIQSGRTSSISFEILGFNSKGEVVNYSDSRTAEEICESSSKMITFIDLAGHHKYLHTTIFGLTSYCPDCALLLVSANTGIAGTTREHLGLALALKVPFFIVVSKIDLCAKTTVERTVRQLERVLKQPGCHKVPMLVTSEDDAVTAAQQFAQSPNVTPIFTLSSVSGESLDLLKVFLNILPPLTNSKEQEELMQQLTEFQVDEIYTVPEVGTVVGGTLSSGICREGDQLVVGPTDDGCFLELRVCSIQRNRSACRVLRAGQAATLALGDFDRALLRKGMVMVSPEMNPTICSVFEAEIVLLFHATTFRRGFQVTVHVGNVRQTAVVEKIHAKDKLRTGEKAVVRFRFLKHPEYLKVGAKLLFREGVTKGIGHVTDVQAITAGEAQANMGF
UniProt Q8WUI4: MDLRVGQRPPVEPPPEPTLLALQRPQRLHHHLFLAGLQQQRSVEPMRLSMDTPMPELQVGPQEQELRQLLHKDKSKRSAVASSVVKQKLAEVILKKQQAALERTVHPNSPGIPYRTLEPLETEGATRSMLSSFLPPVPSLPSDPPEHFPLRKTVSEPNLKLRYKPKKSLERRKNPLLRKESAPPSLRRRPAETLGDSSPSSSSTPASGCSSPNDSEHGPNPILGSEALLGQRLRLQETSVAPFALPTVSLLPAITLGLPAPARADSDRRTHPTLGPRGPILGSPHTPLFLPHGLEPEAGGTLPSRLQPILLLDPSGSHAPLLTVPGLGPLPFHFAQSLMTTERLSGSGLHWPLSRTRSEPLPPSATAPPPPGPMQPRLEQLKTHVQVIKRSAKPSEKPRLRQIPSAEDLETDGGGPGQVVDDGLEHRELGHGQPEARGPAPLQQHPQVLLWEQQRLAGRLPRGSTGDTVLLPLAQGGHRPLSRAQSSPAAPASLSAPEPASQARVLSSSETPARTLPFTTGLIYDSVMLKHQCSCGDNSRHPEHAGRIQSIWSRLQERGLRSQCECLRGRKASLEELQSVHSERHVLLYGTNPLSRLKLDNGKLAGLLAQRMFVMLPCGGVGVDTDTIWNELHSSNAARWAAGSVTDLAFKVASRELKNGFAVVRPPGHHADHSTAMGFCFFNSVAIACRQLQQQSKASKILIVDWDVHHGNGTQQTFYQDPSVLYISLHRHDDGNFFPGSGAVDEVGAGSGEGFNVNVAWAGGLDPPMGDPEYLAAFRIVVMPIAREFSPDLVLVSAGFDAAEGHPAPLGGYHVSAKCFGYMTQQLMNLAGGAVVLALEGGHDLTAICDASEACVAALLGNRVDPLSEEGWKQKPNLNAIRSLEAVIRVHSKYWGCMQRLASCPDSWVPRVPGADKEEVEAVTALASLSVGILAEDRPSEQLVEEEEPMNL
UniProt Q03013: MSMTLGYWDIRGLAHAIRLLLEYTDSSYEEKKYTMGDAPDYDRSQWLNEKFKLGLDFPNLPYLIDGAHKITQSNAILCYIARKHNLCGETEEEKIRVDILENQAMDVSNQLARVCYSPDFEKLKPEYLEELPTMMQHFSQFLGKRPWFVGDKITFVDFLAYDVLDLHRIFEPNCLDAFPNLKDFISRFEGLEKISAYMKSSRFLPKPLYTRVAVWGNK
UniProt Q9BXW7: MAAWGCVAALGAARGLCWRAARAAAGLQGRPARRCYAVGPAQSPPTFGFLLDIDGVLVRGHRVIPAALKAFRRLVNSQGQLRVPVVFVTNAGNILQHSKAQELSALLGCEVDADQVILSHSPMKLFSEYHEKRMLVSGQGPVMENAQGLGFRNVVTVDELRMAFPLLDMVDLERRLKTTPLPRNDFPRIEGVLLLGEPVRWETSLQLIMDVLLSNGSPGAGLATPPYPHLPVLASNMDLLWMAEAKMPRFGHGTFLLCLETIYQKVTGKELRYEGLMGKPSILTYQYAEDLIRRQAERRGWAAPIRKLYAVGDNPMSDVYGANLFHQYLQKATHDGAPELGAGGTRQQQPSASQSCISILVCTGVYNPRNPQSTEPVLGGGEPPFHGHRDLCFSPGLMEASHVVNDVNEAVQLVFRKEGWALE
UniProt Q7Z4V5: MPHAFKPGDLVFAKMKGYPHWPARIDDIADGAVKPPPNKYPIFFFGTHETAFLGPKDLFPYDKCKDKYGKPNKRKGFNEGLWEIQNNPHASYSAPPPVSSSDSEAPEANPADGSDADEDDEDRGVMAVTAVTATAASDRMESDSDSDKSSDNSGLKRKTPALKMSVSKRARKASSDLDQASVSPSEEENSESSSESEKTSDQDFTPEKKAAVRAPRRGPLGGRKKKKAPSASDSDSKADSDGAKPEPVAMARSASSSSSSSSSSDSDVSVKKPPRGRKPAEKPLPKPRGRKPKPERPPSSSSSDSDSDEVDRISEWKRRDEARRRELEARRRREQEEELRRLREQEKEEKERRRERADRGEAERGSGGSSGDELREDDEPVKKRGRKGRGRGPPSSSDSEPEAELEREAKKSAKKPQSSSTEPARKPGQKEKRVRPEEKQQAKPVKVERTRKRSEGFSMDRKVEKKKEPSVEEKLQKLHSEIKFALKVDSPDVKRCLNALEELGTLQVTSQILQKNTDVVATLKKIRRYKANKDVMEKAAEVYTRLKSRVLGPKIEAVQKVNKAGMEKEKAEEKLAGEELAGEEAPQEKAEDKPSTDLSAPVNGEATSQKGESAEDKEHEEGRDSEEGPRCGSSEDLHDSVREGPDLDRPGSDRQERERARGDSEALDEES
UniProt P28161: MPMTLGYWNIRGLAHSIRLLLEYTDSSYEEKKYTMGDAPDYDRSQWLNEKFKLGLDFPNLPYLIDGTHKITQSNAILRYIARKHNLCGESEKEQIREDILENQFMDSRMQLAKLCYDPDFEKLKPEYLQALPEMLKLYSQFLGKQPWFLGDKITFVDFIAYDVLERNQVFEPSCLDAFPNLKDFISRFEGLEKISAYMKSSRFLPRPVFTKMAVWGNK
UniProt Q92522: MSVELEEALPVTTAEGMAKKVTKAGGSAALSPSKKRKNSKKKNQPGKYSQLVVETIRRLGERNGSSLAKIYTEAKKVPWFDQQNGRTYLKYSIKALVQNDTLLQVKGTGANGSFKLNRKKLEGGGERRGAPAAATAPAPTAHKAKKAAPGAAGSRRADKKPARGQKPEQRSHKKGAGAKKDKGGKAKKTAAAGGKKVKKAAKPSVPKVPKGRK
UniProt Q969F1: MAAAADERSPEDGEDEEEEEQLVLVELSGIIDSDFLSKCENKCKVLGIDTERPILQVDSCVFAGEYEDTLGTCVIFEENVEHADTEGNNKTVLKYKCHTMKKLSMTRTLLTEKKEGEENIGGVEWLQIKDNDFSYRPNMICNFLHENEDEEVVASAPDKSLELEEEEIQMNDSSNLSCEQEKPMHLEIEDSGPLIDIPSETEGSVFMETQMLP
UniProt P48637: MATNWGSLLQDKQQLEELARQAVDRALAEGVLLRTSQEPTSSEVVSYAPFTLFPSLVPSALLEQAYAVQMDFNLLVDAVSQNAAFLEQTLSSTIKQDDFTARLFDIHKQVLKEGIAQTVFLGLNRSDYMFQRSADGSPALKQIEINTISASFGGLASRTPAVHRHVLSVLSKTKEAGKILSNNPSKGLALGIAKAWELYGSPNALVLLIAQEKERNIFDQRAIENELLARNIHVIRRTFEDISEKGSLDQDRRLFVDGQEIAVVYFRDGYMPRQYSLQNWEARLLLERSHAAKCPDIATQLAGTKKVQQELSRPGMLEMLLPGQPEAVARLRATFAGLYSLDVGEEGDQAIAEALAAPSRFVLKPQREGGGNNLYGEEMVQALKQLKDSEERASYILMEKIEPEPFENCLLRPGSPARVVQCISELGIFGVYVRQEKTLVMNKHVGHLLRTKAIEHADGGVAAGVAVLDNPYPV
UniProt P02042: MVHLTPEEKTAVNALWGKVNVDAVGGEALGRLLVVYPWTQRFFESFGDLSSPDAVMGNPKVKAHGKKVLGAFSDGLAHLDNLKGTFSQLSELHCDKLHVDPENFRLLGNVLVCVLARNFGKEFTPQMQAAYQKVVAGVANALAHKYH
UniProt Q92664: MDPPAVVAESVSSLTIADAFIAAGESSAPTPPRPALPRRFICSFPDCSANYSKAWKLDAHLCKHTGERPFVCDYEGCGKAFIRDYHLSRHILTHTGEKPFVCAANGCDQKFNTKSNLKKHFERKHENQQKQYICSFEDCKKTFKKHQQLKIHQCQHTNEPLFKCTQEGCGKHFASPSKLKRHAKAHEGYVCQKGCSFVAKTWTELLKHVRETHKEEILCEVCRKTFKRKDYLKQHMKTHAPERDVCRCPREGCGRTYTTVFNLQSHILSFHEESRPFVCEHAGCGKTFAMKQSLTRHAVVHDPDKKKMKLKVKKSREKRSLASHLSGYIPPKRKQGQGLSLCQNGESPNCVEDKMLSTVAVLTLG
UniProt P35269, whole entry, looked up: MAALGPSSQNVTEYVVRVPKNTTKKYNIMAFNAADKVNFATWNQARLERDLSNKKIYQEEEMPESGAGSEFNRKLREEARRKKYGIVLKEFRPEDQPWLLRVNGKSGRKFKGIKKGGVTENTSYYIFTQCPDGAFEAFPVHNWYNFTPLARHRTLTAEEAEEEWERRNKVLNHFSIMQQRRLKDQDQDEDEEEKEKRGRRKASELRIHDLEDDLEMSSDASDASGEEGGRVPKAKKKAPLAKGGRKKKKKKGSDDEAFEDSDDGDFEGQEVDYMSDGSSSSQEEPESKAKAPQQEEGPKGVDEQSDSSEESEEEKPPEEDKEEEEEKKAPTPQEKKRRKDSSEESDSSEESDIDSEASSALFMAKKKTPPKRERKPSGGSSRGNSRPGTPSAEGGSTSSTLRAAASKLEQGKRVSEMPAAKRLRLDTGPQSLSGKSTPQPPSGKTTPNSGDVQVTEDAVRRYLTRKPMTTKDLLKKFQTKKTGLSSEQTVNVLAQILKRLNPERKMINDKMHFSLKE
UniProt P40939: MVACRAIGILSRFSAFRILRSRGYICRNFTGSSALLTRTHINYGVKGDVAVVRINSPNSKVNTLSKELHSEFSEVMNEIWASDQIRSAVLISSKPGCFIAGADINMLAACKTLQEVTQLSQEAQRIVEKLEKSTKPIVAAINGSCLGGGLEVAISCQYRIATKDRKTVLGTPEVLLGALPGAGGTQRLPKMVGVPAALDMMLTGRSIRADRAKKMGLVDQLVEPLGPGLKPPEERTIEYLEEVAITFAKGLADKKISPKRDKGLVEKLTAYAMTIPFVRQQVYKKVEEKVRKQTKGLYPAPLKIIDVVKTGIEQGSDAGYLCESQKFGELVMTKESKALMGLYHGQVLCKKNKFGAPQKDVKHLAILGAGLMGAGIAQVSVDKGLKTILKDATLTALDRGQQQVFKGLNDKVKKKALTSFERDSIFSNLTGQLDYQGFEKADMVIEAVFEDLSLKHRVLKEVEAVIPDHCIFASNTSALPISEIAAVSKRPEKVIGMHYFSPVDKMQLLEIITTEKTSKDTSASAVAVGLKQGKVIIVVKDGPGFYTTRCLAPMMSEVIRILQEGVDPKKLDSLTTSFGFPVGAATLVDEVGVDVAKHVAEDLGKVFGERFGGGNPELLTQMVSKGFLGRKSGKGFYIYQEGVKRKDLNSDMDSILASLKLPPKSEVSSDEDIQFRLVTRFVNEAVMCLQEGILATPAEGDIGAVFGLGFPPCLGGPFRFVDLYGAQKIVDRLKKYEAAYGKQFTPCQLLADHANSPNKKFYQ
UniProt O00178: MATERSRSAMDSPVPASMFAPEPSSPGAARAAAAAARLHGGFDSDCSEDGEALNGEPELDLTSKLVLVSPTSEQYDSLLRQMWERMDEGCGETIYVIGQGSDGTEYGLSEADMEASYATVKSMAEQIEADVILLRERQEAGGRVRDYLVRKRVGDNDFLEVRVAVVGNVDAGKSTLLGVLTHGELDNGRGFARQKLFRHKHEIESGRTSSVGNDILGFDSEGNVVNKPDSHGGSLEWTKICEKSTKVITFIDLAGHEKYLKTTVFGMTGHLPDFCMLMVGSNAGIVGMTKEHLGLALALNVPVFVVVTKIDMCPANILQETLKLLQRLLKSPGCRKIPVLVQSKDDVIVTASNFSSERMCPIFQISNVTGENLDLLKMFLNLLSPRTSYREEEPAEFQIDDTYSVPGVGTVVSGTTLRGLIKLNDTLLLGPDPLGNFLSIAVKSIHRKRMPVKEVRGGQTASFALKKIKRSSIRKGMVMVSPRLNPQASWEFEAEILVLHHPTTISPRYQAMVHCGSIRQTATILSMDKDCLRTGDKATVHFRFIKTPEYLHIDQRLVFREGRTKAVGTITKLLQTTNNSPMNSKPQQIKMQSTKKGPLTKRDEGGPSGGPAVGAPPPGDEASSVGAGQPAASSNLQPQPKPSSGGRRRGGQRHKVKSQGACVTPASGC

Each target was assayed with C=CC(=O)N1CCC[C@@H](n2nc(-c3ccc(Oc4ccccc4)cc3)c3c(N)ncnc32)C1 [ibrutinib] (assay: log2 fold change, soluble protein after heating vs DMSO (PISA); higher = thermal stabilisation; K562 lysate, 10 uM; active = over 0.2 and 3.5 SD of the protein, either way, in both replicates (recomputed)).
Method in brief: (§1)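 To prepare the extract, K562 pellets were dounce-homogenised in PBS pH 7.4 with 1 mM MgCl2, giving crude material at 1 mg/mL protein. This was treated with 10 μM compound for 30 min, then heated in aliquots for 3 min over 48°C-58°C before pooling and addition of NP-40 to 0.5% at 4°C. Centrifugation at 21,000xg for 90 min left soluble protein in the supernatant, which TMTpro 16plex LC-MS/MS quantified with equalised channel sums. Results are log-two fold changes in thermal stability compared with solvent controls, from duplicates.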
In the case of GYPA (UniProt P02724), the log2 fold change is reported as inactive: 0.318.
In the case of GTPBP2 (UniProt Q9BX10), the log2 fold change is reported as inactive: 0.008.
With HDAC7 isoform 5 (UniProt Q8WUI4) the log2 fold change was inactive: 0.021.
For H1-2 (UniProt P16403), the log2 fold change was inactive: 0.034.
With GRB10 (UniProt Q13322) the log2 fold change was inactive: 0.015.
For GSTM4 (UniProt Q03013), the log2 fold change was inactive: -0.139.
With HDHD5 (UniProt Q9BXW7) the log2 fold change was inactive: -0.027.
In the case of GYG2 (UniProt O15488), the log2 fold change is reported as inactive: -0.051.
For HAUS7 isoform 2 (UniProt Q99871), the log2 fold change was inactive: 0.082.
With HDGFL2 isoform 2 (UniProt Q7Z4V5) the log2 fold change was inactive: -0.033.
In the case of GSTM2 (UniProt P28161), the log2 fold change is reported as inactive: 0.081.
With GTSF1 (UniProt Q8WW33) the log2 fold change was inactive: 0.038.
H1FX (UniProt Q92522) was tested, and the log2 fold change was inactive: 0.015.
For GUF1 (UniProt Q8N442), the log2 fold change was inactive: 0.054.
With GTF3C6 (UniProt Q969F1) the log2 fold change was inactive: 0.083.
GTF3C3 (UniProt Q9Y5Q9) was tested, and the log2 fold change was inactive: 0.033.
For GSTM3 (UniProt P21266), the log2 fold change was inactive: 0.139.
HAT1 (UniProt O14929) was tested, and the log2 fold change was inactive: -0.005.
GRSF1 (UniProt Q12849) was tested, and the log2 fold change was inactive: -0.007.
For GSS (UniProt P48637), the log2 fold change was inactive: 0.016.
With HBD (UniProt P02042) the log2 fold change was inactive: 0.094.
With HDAC4 (UniProt P56524) the log2 fold change was inactive: 0.005.
In the case of GTF3A (UniProt Q92664), the log2 fold change is reported as inactive: 0.013.
In the case of GTPBP4 (UniProt Q9BZE4), the log2 fold change is reported as inactive: 0.012.
GRHPR (UniProt Q9UBQ7) was tested, and the log2 fold change was inactive: 0.009.
In the case of HDAC2 (UniProt Q92769), the log2 fold change is reported as inactive: 0.
GSTZ1 (UniProt G3V4T6) was tested, and the log2 fold change was inactive: 0.
GTF2F1 (UniProt P35269) was tested, and the log2 fold change was inactive: -0.008.
With HBE1 (UniProt P02100) the log2 fold change was inactive: 0.075.
With HADHA (UniProt P40939) the log2 fold change was inactive: 0.078.
With GTPBP1 (UniProt O00178) the log2 fold change was inactive: -0.004.
In the case of GTF2H1 (UniProt P32780), the log2 fold change is reported as inactive: 0.023.

Each target was assayed with CC(=O)c1cnc2ccc(-c3cc(Cl)c(O)c(Cl)c3)nc2c1N[C@H]1CC[C@H](CN(C)C)CC1 in the same assay as above.
Method in brief: as §1
For GYPA (UniProt P02724), the log2 fold change was inactive: 0.102.
In the case of GTPBP2 (UniProt Q9BX10), the log2 fold change is reported as inactive: -0.123.
With HDAC7 isoform 5 (UniProt Q8WUI4) the log2 fold change was inactive: -0.009.
For H1-2 (UniProt P16403), the log2 fold change was inactive: 0.031.
For GRB10 (UniProt Q13322), the log2 fold change was inactive: -0.039.
For GSTM4 (UniProt Q03013), the log2 fold change was inactive: -0.006.
In the case of HDHD5 (UniProt Q9BXW7), the log2 fold change is reported as inactive: 0.018.
For GYG2 (UniProt O15488), the log2 fold change was inactive: 0.003.
In the case of HAUS7 isoform 2 (UniProt Q99871), the log2 fold change is reported as inactive: 0.105.
For HDGFL2 isoform 2 (UniProt Q7Z4V5), the log2 fold change was inactive: -0.002.
GSTM2 (UniProt P28161) was tested, and the log2 fold change was inactive: 0.009.
In the case of GTSF1 (UniProt Q8WW33), the log2 fold change is reported as inactive: 0.021.
With H1FX (UniProt Q92522) the log2 fold change was inactive: -0.01.
GUF1 (UniProt Q8N442) was tested, and the log2 fold change was inactive: -0.078.
In the case of GTF3C6 (UniProt Q969F1), the log2 fold change is reported as inactive: -0.019.
For GTF3C3 (UniProt Q9Y5Q9), the log2 fold change was inactive: -0.001.
In the case of GSTM3 (UniProt P21266), the log2 fold change is reported as inactive: 0.061.
HAT1 (UniProt O14929) was tested, and the log2 fold change was inactive: -0.015.
For GRSF1 (UniProt Q12849), the log2 fold change was inactive: -0.029.
GSS (UniProt P48637) was tested, and the log2 fold change was inactive: -0.021.
HBD (UniProt P02042) was tested, and the log2 fold change was inactive: -0.059.
With HDAC4 (UniProt P56524) the log2 fold change was inactive: 0.02.
In the case of GTF3A (UniProt Q92664), the log2 fold change is reported as inactive: 0.012.
With GTPBP4 (UniProt Q9BZE4) the log2 fold change was inactive: 0.008.
For GRHPR (UniProt Q9UBQ7), the log2 fold change was inactive: 0.001.
For HDAC2 (UniProt Q92769), the log2 fold change was inactive: -0.008.
GSTZ1 (UniProt G3V4T6) was tested, and the log2 fold change was inactive: 0.
In the case of GTF2F1 (UniProt P35269), the log2 fold change is reported as inactive: 0.
With HBE1 (UniProt P02100) the log2 fold change was inactive: -0.031.
With HADHA (UniProt P40939) the log2 fold change was inactive: -0.057.
GTPBP1 (UniProt O00178) was tested, and the log2 fold change was inactive: -0.002.
For GTF2H1 (UniProt P32780), the log2 fold change was inactive: 0.023.
